pIC50: −log10 of the molar value.
Test system: NCI-H460
Assay: Growth inhibition of human H460 cells after 72 hrs by methylene blue dye assay
Type: functional, cell-based
Settings: NCI-H460, 72 h

**Q.** `COc1cc2c(c(OC)c1OC)-c1ccc(OC)c(=O)cc1[C@@H](NC(C)=O)CC2` [COLCHICINE] was tested. Which pIC50 did it give?
**A.** 7.69
